The record followed here is paper PMC12807481.

Sequences of proteins named here, by UniProt entry; tags and fusion partners are left off. A change or cut given only in a name is not applied to a line headed by its entry.
UniProt P36776: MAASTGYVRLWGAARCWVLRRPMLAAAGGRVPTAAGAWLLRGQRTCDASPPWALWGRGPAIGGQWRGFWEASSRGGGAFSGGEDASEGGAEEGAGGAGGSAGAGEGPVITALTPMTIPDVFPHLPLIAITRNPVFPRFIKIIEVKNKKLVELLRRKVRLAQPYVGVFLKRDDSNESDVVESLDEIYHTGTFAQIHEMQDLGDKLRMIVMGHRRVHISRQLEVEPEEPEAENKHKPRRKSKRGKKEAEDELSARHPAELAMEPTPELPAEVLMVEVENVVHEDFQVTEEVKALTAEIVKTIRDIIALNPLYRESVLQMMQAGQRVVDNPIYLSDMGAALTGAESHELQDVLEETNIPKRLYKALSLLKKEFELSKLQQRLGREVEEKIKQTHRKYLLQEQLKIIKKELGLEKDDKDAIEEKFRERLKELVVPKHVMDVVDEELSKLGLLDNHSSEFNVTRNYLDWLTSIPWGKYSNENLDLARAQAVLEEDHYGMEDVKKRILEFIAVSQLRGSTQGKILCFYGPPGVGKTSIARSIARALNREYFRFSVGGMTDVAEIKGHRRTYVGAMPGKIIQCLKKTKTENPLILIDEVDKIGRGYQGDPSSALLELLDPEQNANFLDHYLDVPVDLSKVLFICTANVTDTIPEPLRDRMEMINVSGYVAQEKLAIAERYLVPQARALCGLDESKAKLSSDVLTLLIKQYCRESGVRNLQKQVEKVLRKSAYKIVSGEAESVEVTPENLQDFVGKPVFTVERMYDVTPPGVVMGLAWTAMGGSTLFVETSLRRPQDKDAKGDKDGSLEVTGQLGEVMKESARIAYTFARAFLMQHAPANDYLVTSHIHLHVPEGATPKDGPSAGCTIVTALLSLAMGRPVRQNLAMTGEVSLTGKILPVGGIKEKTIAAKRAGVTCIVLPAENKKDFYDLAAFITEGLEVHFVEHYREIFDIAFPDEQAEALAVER

These are yes or no findings as the source states them, for the method shown. In cells and extracts the contact can be indirect. For part of these data: A result given as binding can be weak or reduced; the word gives no strength.

What all share (assay): co-IP; WT or mutant LONP1-FLAG constructs immunoprecipitated from K562 cells, immunoblots of FLAG and endogenous FBXO11
(A western blot detects proteins with antibodies after separation by electrophoresis.)

One test addresses LONP1^del551–602-FLAG (UniProt P36776).
For another test, the target named is LONP1^del2–66-FLAG (UniProt P36776).
Test [1] deals with C-terminal FLAG-tagged LONP1, wild type (UniProt P36776).

B1: FBXO11 (endogenous) (protein, UniProt Q86XK2 1-927)
chain: MNSVRAANRRPRRVSRPRPVQQQQQQPPQQPPPQPPQQQPPQQQPPPPPQQQQQQQPPPPPPPPPPLPQERNNVGERDDDVPADMVAEESGPGAQNSPYQLRRKTLLPKRTACPTKNSMEGASTSTTENFGHRAKRARVSGKSQDLSAAPAEQYLQEKLPDEVVLKIFSYLLEQDLCRAACVCKRFSELANDPILWKRLYMEVFEYTRPMMHPEPGKFYQINPEEYEHPNPWKESFQQLYKGAHVKPGFAEHFYSNPARYKGRENMLYYDTIEDALGGVQEAHFDGLIFVHSGIYTDEWIYIESPITMIGAAPGKVADKVIIENTRDSTFVFMEGSEDAYVGYMTIRFNPDDKSAQHHNAHHCLEITVNCSPIIDHCIIRSTCTVGSAVCVSGQGACPTIKHCNISDCENVGLYITDHAQGIYEDNEISNNALAGIWVKNHGNPIIRRNHIHHGRDVGVFTFDHGMGYFESCNIHRNRIAGFEVKAYANPTVVRCEIHHGQTGGIYVHEKGRGQFIENKIYANNFAGVWITSNSDPTIRGNSIFNGNQGGVYIFGDGRGLIEGNDIYGNALAGIQIRTNSCPIVRHNKIHDGQHGGIYVHEKGQGVIEENEVYSNTLAGVWVTTGSTPVLRRNRIHSGKQVGVYFYDNGHGVLEDNDIYNHMYSGVQIRTGSNPKIRRNKIWGGQNGGILVYNSGLGCIEDNEIFDNAMAGVWIKTDSNPTLRRNKIHDGRDGGICIFNGGRGLLEENDIFRNAQAGVLISTNSHPILRKNRIFDGFAAGIEITNHATATLEGNQIFNNRFGGLFLASGVNVTMKDNKIMNNQDAIEKAVSRGQCLYKISSYTSYPMHDFYRCHTCNTTDRNAICVNCIKKCHQGHDVEFIRHDRFFCDCGAGTLSNPCTLAGEPTHDTDTLYDSAPPIESNTLQHN
In the case of B1, the binding entry with LONP1^del551–602-FLAG is on record as “no binding”; in the test with LONP1^del2–66-FLAG, “no binding”; in test [1], “binds”.
